Experimental data reported in publication PMC10798561.
These are yes or no findings as the source states them, for the method shown. Some results given as binding are weak or reduced against the parent protein; the word gives no strength. Tags and fused reporters may be left off the sequences shown.

Protein sequences, listed by entry. Tags and fused reporters are not part of them. Lines headed by an entry give the natural chain unless they say otherwise; changes in a name come on top. Chains listed by the source or under a name are the forms on record and can include a tag or linker. Residues count along the entry.
UniProt P04608: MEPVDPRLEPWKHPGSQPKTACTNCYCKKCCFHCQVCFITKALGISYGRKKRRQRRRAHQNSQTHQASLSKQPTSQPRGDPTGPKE
HIV-1 HXB2 Tat residues 1 to 72 fused to GST (HIV-1 (HXB2)): residues 1-72 of P04608
HIV-1 HXB2 Tat residues 1 to 20 fused to GST (HIV-1 (HXB2)): residues 1-20 of P04608

What was measured:
[1] = biological target: HIV-1 HXB2 Tat residues 1 to 20 fused to GST (HIV-1 (HXB2)) (UniProt P04608); assay: pull-down; reciprocal in vitro pull-down using MBP-fused TRAF6 as preys and GST-fused Tat truncations (fig. S2B); both purified
[2] = biological target: HIV-1 HXB2 Tat residues 1 to 72 fused to GST (HIV-1 (HXB2)) (UniProt P04608); assay: as above

B1: TRAF6 TRAFC (residues 346 to 504) fused to maltose-binding protein (domain or fragment, UniProt Q9Y4K3 346-504)
chain: AQQCNGIYIWKIGNFGMHLKCQEEEKPVVIHSPGFYTGKPGYKLCMRLHLQLPTAQRCANYISLFVHTMQGEYDSHLPWPFQGTIRLTILDQSEAPVRQNHEEIMDAKPELLAFQRPTIPRNPKGFGYVTFMHLEALRQRTFIKDDTLLVRCEVSTRFD
binding [1]: no binding
binding [2]: binds weakly
